PubChem BioAssay AID743454 | Peter MacCallum Cancer Centre | 2014

Purpose: 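Knock-downs lowering viability or raising caspase 3/7 activity in vorinostat-treated resistant cells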 (primary screen)
System: human HCT116-VR colon cancer cells, selected for vorinostat resistance
Knock-down reagent: siRNA pool against human genes, 40 nM siRNA pool
Timing: vorinostat for 24 h, read-out about 72 h after transfection
Conditions: vorinostat at 2.5 µM final
Measurement: 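Two measures, CellTiter-Fluor viability and luminescent caspase 3/7 activity, each as fold change against same-plate mock wells, mean of duplicates, then screen-wide robust z-score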
Scale: viability robust z-score: higher = more viable cells than screen typical; caspase robust z-score: higher = more caspase 3/7 activity than screen typical
Call rule: 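Hits are knock-downs in viability class RV1/RV2 or caspase class CA1/CA2, excluding ones that killed cells in the no-drug cell-count arm; hits then retested with single siRNAs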
In all, the deposit lists about 18,000 reagents; shown is an unselected part. In the full data, 450 (2.5%) got an active call. 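Single biological run; no consistent viability z cut-off exists, so the class columns, not z-scores, define the calls.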

| Target gene | viability hit class | caspase hit class | viability robust z-score | caspase robust z-score | Call |
| --- | --- | --- | --- | --- | --- |
| ARPC1A | no change | no change | 0.8 | 0.42 | inactive |
| TBPL1 | no change | no change | -0.32 | -0.26 | inactive |
| NKX2-1 | RV2 (reduced viability) | CA2 (caspase activation) | -2.95 | 6.64 | active |
| RCHY1 | no change | no change | -1.5 | -0.27 | inactive |
| TLCD5 | no change | no change | -0.46 | 0.57 | inactive |
| EFEMP2 | no change | no change | 0.62 | 4.78 | inactive |
| APOL5 | no change | CA1 (caspase activation) | -0.53 | 5.73 | active |
| CCDC28B | no change | no change | 1.29 | -0.84 | inactive |
| OR8U9 | no change | no change | -2.13 | 0.5 | inactive |
| C16orf86 | no change | no change | 1.44 | 0 | inactive |
| SLX9 | no change | no change | 0.43 | -0.15 | inactive |

The list goes on (3 carried over from the part before).
| Target gene | viability hit class | caspase hit class | viability robust z-score | caspase robust z-score | Call |
| --- | --- | --- | --- | --- | --- |
| OR8U9 | no change | no change | -2.13 | 0.5 | inactive |
| C16orf86 | no change | no change | 1.44 | 0 | inactive |
| SLX9 | no change | no change | 0.43 | -0.15 | inactive |
| SSR4 | no change | no change | 0.86 | 0.06 | inactive |
| ATAT1 | no change | no change | -0.28 | -0.82 | inactive |
| ERO1B | no change | no change | 1.36 | -0.5 | inactive |
| FLAD1 | no change | no change | 0.78 | 3.97 | inactive |
| RTCB | no change | no change | 1.15 | -0.02 | inactive |
| PAAF1 | no change | no change | -0.66 | 0.32 | inactive |
| STRA6 | no change | no change | 0.06 | -0.34 | inactive |
| B3GAT1 | no change | no change | -2.2 | 2.39 | inactive |
| ZNF83 | no change | no change | -0.82 | -0.44 | inactive |
| FILIP1L | no change | no change | 1.99 | 0.64 | inactive |
| CTNNB1 | no change | no change | -2.26 | 2.87 | inactive |
| CTSH | no change | no change | -0.51 | 1.8 | inactive |
